Reference: patent publication US6545131B1 (priority 1997, dated 2003)
Strings that start with PEPTIDE1 are HELM notation: dots part the residues, brackets hold end groups and non-standard residues.

Experiment: general procedure: peptide synthesis; copoly(styrene-divinylbenzene) containing 0.1-1.0 mM amine/gram polymer
Settings: conjugation step, trifluoroacetate salt

Substance	final HPLC purity [% purity]
PEPTIDE1{[Mu].H.S.S.K.L.Q.L.[Dox]}$$$$V2.0	>98
Mu-His-Ser-Ser-Lys-Leu-Gln-doxorubicin (HSSKLQ; N-terminal morpholino/acetyl cap; doxorubicin conjugate; VARIANT (1) N-term Ac (Acetyl); listed as Homo sapiens)	>98
